Values of other authors, collected in US20240217930A1 (priority 2021, published 2024).
For at least one compound, name, drawing or mass did not settle the structure.

Tested on: Mpro proteases from eight other coronaviruses including SARS, MERS, HKU1, HKU4, HKU5, NL63, FIPV and IBV
Settings: cited from earlier work

| SMILES | inhibitory activity at Mpro proteases of other coronaviruses |
| --- | --- |
| CC(C)(C)NC(=O)N[C@H](C(=O)N1C[C@H]2[C@@H]([C@H]1C(=O)NC(CC1CCC1)C(=O)C(N)=O)C2(C)C)C(C)(C)C (some centres unmarked) [boceprevir] | able to inhibit all coronavirus proteases tested except NL63 |
| CCC[C@H](NC(=O)[C@@H]1[C@H]2CCC[C@H]2CN1C(=O)[C@@H](NC(=O)[C@@H](NC(=O)c1cnccn1)C1CCCCC1)C(C)(C)C)C(=O)C(=O)NC1CC1 [telaprevir] | inhibitory activity shown at SARS, HKU4, HKU5, NL63 and IBV |
